# PubChem BioAssay AID504834 (National Center for Advancing Translational Sciences (NCATS), 2011)
# Hit rate of the full screen: of about 320,000 compounds, about 22,000 (6.9%) were called active. This list was built around the results that the source calls inconclusive (neither active nor inactive); the mix of calls is not that of the screen. Calls follow the shape of the dose curve; as a rule, active = well fitted inhibition curve with a large enough effect; inconclusive = small, poorly fitted or top-dose-only effect, or another doubt; inactive = no such curve, though single readings can be large or run the other way. Potencies beside an inconclusive call are fits to weak or partial responses and may not hold up.
# Assay: Primary qHTS for delayed death inhibitors of the malarial parasite plastid, 96 hour incubation
# Details: P. falciparum luciferase reporter growth; series mostly up to 28.7 µM
# In short: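 Plates of compound plus infected erythrocytes (2% hematocrit, 0.05% parasitemia final) incubate 96 hours, 37 C, 5% CO2. Detection reagent added; reduced luminescence from the parasites' luciferase reporter flags inhibition.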
# Potency is read from the fitted curve at half-maximal effect.
row,SMILES,Potency
1,COc1cc(O)c(C(CCN2CCCC2)c2cc(OC)c(OC)c(OC)c2)c(OC)c1 (stereo not given),active: 2.94 µM
2,Cc1cccnc1NC(=O)c1ccc([N+](=O)[O-])o1,"inconclusive: 13.1 µM [inhibitor, single point]"
3,CCC1CN(C(=O)Nc2cccc(C)c2)c2cc(C)ccc2O1 (stereo not given),"inconclusive: 9.28 µM [inhibitor, partial curve, poor fit]"
4,Cc1ccc(COc2cccc(/C=N/NC(=O)c3nnn(-c4nonc4N)c3C)c2)cc1,inactive
5,Cc1ccc(N2C(=O)N(CC(=O)Nc3ccc(C)cc3Cl)C(=O)C2C)cc1 (stereo not given),inactive
6,CC(C)CCN(C(=O)CNC(=O)c1cccs1)C(C(=O)NC1CCCCC1)c1cccnc1 (stereo not given),"inconclusive: 11.7 µM [inhibitor, single point]"
7,CC(C)CN(C(=O)COC(=O)Cc1c[nH]c2ccccc12)C1CCS(=O)(=O)C1 (stereo not given),"inconclusive: 0.0738 µM [inhibitor, full curve, poor fit]"
8,Cc1nc2ccccc2n1C(C)c1ccccc1 (stereo not given),"inconclusive: 18.5 µM [inhibitor, single point]"
9,CCCn1cnnc1CNC(=O)C1CCC(=O)N(CCc2cccc(F)c2)C1 (stereo not given),"inconclusive: 1.47 µM [inhibitor, full curve, poor fit]"
10,N#Cc1c(NC(=O)CCC(=O)O)sc2c1CCCC2,inactive
11,Cc1ccc(C)c(NC(=O)CSc2nnc(Cc3cccn3C)n2-c2ccc(F)cc2)c1,"inconclusive: 18.5 µM [inhibitor, single point]"
12,COc1c(N2CCN(C(=S)Nc3ccccc3)C(C)C2)c(F)cc2c(=O)c(C(=O)O)cn(C3CC3)c12 (stereo not given),inactive
13,Cc1cc(C)cc(NC(=O)C(OC(=O)c2cc[n+]([O-])cc2)c2ccccc2)c1 (stereo not given),inactive
14,CCNC(=O)c1ccc(CSc2nc3ccccc3s2)cc1,"inconclusive: 18.5 µM [inhibitor, single point]"
15,CCOc1ccc(C2CC(=O)NC(SCC(=O)OC)=C2C#N)cc1 (stereo not given),inactive
16,C/C(=N\OCC(=O)Nn1c(=O)[nH]c2ccccc2c1=O)c1ccccc1,"inconclusive: 18.5 µM [inhibitor, single point]"
17,CC(=O)NCCC(=O)Nc1cc(S(=O)(=O)N2CCOCC2)ccc1N1CCOCC1,"inconclusive: 1.47 µM [inhibitor, partial curve, poor fit]"
18,O=C(CN1C(=O)CCC1=O)Nc1cccc(NC(=O)CN2C(=O)CCC2=O)c1,inactive
19,CCCc1nc2c(c(=O)c3ccccc3n2C)c(=O)n1-c1cc(C)cc(C)c1,active: 5.86 µM
20,CCOC(=O)C1CCN(C(=O)c2ccc3c(c2)NC(=O)/C(=C/c2ccccc2)S3)CC1,"inconclusive: 2.08 µM [inhibitor, full curve]"

# An excerpt of these results, bar-delimited.
row | SMILES | Potency
13 | Cc1cc(C)cc(NC(=O)C(OC(=O)c2cc[n+]([O-])cc2)c2ccccc2)c1 (stereo not given) | inactive
14 | CCNC(=O)c1ccc(CSc2nc3ccccc3s2)cc1 | inconclusive: 18.5 µM [inhibitor, single point]
